Measured values: the supplement of paper PMC8728848
This is one part of the list.

Legend:
Assay in all cases: glycan array binding signal (z-score within array); higher = stronger binding
Conditions in all cases: glycan notation: IUPAC condensed, linker removed
Fuc(a1-2)Gal = target: Fuc(a1-2)Gal
In short: (§1)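 The binding signal is a Z-score computed within each array. Data were drawn from 3228 arrays in the Consortium for Functional Glycomics database, restricted to those with a known protein sequence. Scores were averaged over arrays of the same protein sequence at different concentrations or buffers, and over linkers, and negative values can be taken as non-binding.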

Fuc(a1-2)Gal(b1-3)GalNAc = target: Fuc(a1-2)Gal(b1-3)GalNAc
In short: as §1

[1] = target: Fuc(a1-2)Gal(b1-3)GalNAc(a1-3)[Fuc(a1-2)]Gal(b1-4)Glc
In short: as §1

[2] = target: Fuc(a1-2)Gal(b1-3)GalNAc(a1-3)[Fuc(a1-2)]Gal(b1-4)GlcNAc
In short: as §1

[3] = target: Fuc(a1-2)Gal(b1-3)GalNAc(b1-3)Gal
In short: as §1

[4] = target: Fuc(a1-2)Gal(b1-3)GalNAc(b1-3)Gal(a1-4)Gal(b1-4)Glc
In short: as §1

[5] = target: Fuc(a1-2)Gal(b1-3)GalNAc(b1-4)[Neu5Ac(a2-3)]Gal(b1-4)Glc
In short: as §1

Fuc(a1-2)Gal(b1-3)GlcNAc = target: Fuc(a1-2)Gal(b1-3)GlcNAc
In short: as §1

[6] = target: Fuc(a1-2)Gal(b1-3)GlcNAc(b1-2)Man(a1-3)[Fuc(a1-2)Gal(b1-3)GlcNAc(b1-2)Man(a1-6)]Man(b1-4)GlcNAc(b1-4)GlcNAc
In short: as §1

[7] = target: Fuc(a1-2)Gal(b1-3)GlcNAc(b1-3)Gal(b1-4)Glc
In short: as §1

[8] = target: Fuc(a1-2)Gal(b1-3)GlcNAc(b1-3)[Fuc(a1-3)[Gal(b1-4)]GlcNAc(b1-6)]Gal(b1-4)Glc
In short: as §1

[9] = target: Fuc(a1-2)Gal(b1-3)[Fuc(a1-4)]GlcNAc
In short: as §1

[10] = target: Fuc(a1-2)Gal(b1-3)[Fuc(a1-4)]GlcNAc(b1-2)Man(a1-3)[Fuc(a1-2)Gal(b1-3)[Fuc(a1-4)]GlcNAc(b1-2)Man(a1-6)]Man(b1-4)GlcNAc(b1-4)GlcNAc
In short: as §1

[11] = target: Fuc(a1-2)Gal(b1-3)[Fuc(a1-4)]GlcNAc(b1-3)[Fuc(a1-3)[Gal(b1-4)]GlcNAc(b1-6)]Gal(b1-4)Glc
In short: as §1

[12] = target: Fuc(a1-2)Gal(b1-3)[Fuc(a1-4)]GlcNAc(b1-3)[Gal(b1-4)GlcNAc(b1-6)]Gal(b1-4)Glc
In short: as §1

Fuc(a1-2)Gal(b1-4)Glc = target: Fuc(a1-2)Gal(b1-4)Glc
In short: as §1

Fuc(a1-2)Gal(b1-4)Glc6S = target: Fuc(a1-2)Gal(b1-4)Glc6S
In short: as §1

Fuc(a1-2)Gal(b1-4)GlcNAc = target: Fuc(a1-2)Gal(b1-4)GlcNAc
In short: as §1

[13] = target: Fuc(a1-2)Gal(b1-4)GlcNAc(b1-2)Man(a1-3)[Fuc(a1-2)Gal(b1-4)GlcNAc(b1-2)Man(a1-6)]Man(b1-4)GlcNAc(b1-4)GlcNAc
In short: as §1

[14] = target: Fuc(a1-2)Gal(b1-4)GlcNAc(b1-3)Gal(b1-4)GlcNAc
In short: as §1

[15] = target: Fuc(a1-2)Gal(b1-4)GlcNAc(b1-3)Gal(b1-4)GlcNAc(b1-3)Gal(b1-4)GlcNAc
In short: as §1

[16] = target: Fuc(a1-2)Gal(b1-4)GlcNAc(b1-3)GalNAc
In short: as §1

[17] = target: Fuc(a1-2)Gal(b1-4)GlcNAc6S
In short: as §1

[18] = target: Fuc(a1-2)Gal(b1-4)[Fuc(a1-3)]GlcNAc
In short: as §1

[19] = target: Fuc(a1-2)Gal(b1-4)[Fuc(a1-3)]GlcNAc(b1-2)Man(a1-3)[Fuc(a1-2)Gal(b1-4)[Fuc(a1-3)]GlcNAc(b1-2)Man(a1-6)]Man(b1-4)GlcNAc(b1-4)GlcNAc
In short: as §1

[20] = target: Fuc(a1-2)Gal(b1-4)[Fuc(a1-3)]GlcNAc(b1-3)Gal(b1-4)[Fuc(a1-3)]GlcNAc
In short: as §1

[21] = target: Fuc(a1-2)Gal(b1-4)[Fuc(a1-3)]GlcNAc(b1-3)Gal(b1-4)[Fuc(a1-3)]GlcNAc(b1-3)Gal(b1-4)[Fuc(a1-3)]GlcNAc
In short: as §1

Fuc(a1-2)Gal6S(b1-4)Glc = target: Fuc(a1-2)Gal6S(b1-4)Glc
In short: as §1

[22] = target: Fuc(a1-2)Gal6S(b1-4)Glc6S
In short: as §1

[23] = target: Fuc(a1-2)Gal6S(b1-4)GlcNAc
In short: as §1

Fuc(a1-2)[Gal(a1-3)]Gal = target: Fuc(a1-2)[Gal(a1-3)]Gal
In short: as §1

[24] = target: Fuc(a1-2)[Gal(a1-3)]Gal(b1-3)GlcNAc
In short: as §1

[25] = target: Fuc(a1-2)[Gal(a1-3)]Gal(b1-3)GlcNAc(b1-2)Man(a1-3)[Fuc(a1-2)[Gal(a1-3)]Gal(b1-3)GlcNAc(b1-2)Man(a1-6)]Man(b1-4)GlcNAc(b1-4)GlcNAc
In short: as §1

[26] = target: Fuc(a1-2)[Gal(a1-3)]Gal(b1-4)Glc
In short: as §1

[27] = target: Fuc(a1-2)[Gal(a1-3)]Gal(b1-4)GlcNAc
In short: as §1

[28] = target: Fuc(a1-2)[Gal(a1-3)]Gal(b1-4)GlcNAc(b1-2)Man(a1-3)[Fuc(a1-2)[Gal(a1-3)]Gal(b1-4)GlcNAc(b1-2)Man(a1-6)]Man(b1-4)GlcNAc(b1-4)GlcNAc
In short: as §1

[29] = target: Fuc(a1-2)[Gal(a1-3)]Gal(b1-4)[Fuc(a1-3)]GlcNAc
In short: as §1

[30] = target: Fuc(a1-2)[Gal(a1-4)]Gal(b1-4)GlcNAc
In short: as §1

[31] = target: Fuc(a1-2)[GalNAc(a1-3)]Gal
In short: as §1

[32] = target: Fuc(a1-2)[GalNAc(a1-3)]Gal(b1-3)GalNAc(a1-3)[Fuc(a1-2)]Gal(b1-4)GlcNAc
In short: as §1

[33] = target: Fuc(a1-2)[GalNAc(a1-3)]Gal(b1-3)GlcNAc
In short: as §1

[34] = target: Fuc(a1-2)[GalNAc(a1-3)]Gal(b1-3)GlcNAc(b1-2)Man(a1-3)[Fuc(a1-2)[GalNAc(a1-3)]Gal(b1-3)GlcNAc(b1-2)Man(a1-6)]Man(b1-4)GlcNAc(b1-4)GlcNAc
In short: as §1

[35] = target: Fuc(a1-2)[GalNAc(a1-3)]Gal(b1-4)Glc
In short: as §1

[36] = target: Fuc(a1-2)[GalNAc(a1-3)]Gal(b1-4)GlcNAc
In short: as §1

[37] = target: Fuc(a1-2)[GalNAc(a1-3)]Gal(b1-4)GlcNAc(b1-2)Man(a1-3)[Fuc(a1-2)[GalNAc(a1-3)]Gal(b1-4)GlcNAc(b1-2)Man(a1-6)]Man(b1-4)GlcNAc(b1-4)GlcNAc
In short: as §1

B1: AcfC (Vibrio cholerae), Q57410 (protein)
chain: MKSKNRFLLISLLSFSTSVFADVNLYGPGGPHVPLIKVAESFEKSQSKRVNITFGPQATWNDKAKKNADILFGASEHSALAIAEGHSERFSKFNIHPVFMREAIILVKKGNPKNIKGMADLLKPGIGIVVNDGAGVSNTSGTAVWEDSVGRMKNVEKLQAFRSNIHVFAPNSGSARKAFVDGEDIDAWITWVDWAIANPTIGDMVRMEDEYRIYRDFNVVLAKNPSSEAIDFFDYLTKSKDAEAIFQHYGWFK
B1 was tested, and the “glycan array binding signal (z-score)” value (Fuc(a1-2)Gal) was 0.487, the “glycan array binding signal (z-score)” value (Fuc(a1-2)Gal(b1-3)GalNAc) was 0.244 and the “glycan array binding signal (z-score)” value [1] was -1.2. For the same binder, the “glycan array binding signal (z-score)” value [2] was -0.225, the “glycan array binding signal (z-score)” value [3] was -0.38 and the “glycan array binding signal (z-score)” value [4] was 0.053. The “glycan array binding signal (z-score)” value [5] was -0.09, the “glycan array binding signal (z-score)” value (Fuc(a1-2)Gal(b1-3)GlcNAc) was -0.06 and the “glycan array binding signal (z-score)” value [6] was 0.497. The “glycan array binding signal (z-score)” value [7] was 0.385, the “glycan array binding signal (z-score)” value [8] was 1.69 and the “glycan array binding signal (z-score)” value [9] was 3.03. The “glycan array binding signal (z-score)” value [10] was 1.04, the “glycan array binding signal (z-score)” value [11] was 1.51 and the “glycan array binding signal (z-score)” value [12] was 1.12. The “glycan array binding signal (z-score)” value (Fuc(a1-2)Gal(b1-4)Glc) was 0.311, the “glycan array binding signal (z-score)” value (Fuc(a1-2)Gal(b1-4)Glc6S) was 1.34 and the “glycan array binding signal (z-score)” value (Fuc(a1-2)Gal(b1-4)GlcNAc) was 0.933. For the same binder, the “glycan array binding signal (z-score)” value [13] was -0.17, the “glycan array binding signal (z-score)” value [14] was 1.29 and the “glycan array binding signal (z-score)” value [15] was 0.879. The “glycan array binding signal (z-score)” value [16] was -1.41, the “glycan array binding signal (z-score)” value [17] was 0.376 and the “glycan array binding signal (z-score)” value [18] was 0.749. For the same binder, the “glycan array binding signal (z-score)” value [19] was 3.03, the “glycan array binding signal (z-score)” value [20] was -0.976 and the “glycan array binding signal (z-score)” value [21] was 2.22. For the same binder, the “glycan array binding signal (z-score)” value (Fuc(a1-2)Gal6S(b1-4)Glc) was 0.849, the “glycan array binding signal (z-score)” value [22] was 1.26 and the “glycan array binding signal (z-score)” value [23] was -0.56. The “glycan array binding signal (z-score)” value (Fuc(a1-2)[Gal(a1-3)]Gal) was -0.643, the “glycan array binding signal (z-score)” value [24] was -0.795 and the “glycan array binding signal (z-score)” value [25] was 1.07. The “glycan array binding signal (z-score)” value [26] was -0.493, the “glycan array binding signal (z-score)” value [27] was -0.471 and the “glycan array binding signal (z-score)” value [28] was 2. The “glycan array binding signal (z-score)” value [29] was -1.06, the “glycan array binding signal (z-score)” value [30] was 0.213 and the “glycan array binding signal (z-score)” value [31] was 0.712. The “glycan array binding signal (z-score)” value [32] was -1.1, the “glycan array binding signal (z-score)” value [33] was 0.69 and the “glycan array binding signal (z-score)” value [34] was 0.027. The “glycan array binding signal (z-score)” value [35] was 0.3, the “glycan array binding signal (z-score)” value [36] was -0.063 and the “glycan array binding signal (z-score)” value [37] was -0.26.
